# Measured values reported in EP0485219B1, “Medicaments for preventing and treating circulatory organ diseases containing spiro-3-heteroazolidine compounds” (SANWA KAGAKU KENKYUSHO CO., LTD., priority 1990, dated 1992).
# At least one compound was matched to its structure with a doubt left.
# System: thoracic aortae
# Experiment: Action on extracted guinea pigs' aortae (relaxation of KCl or NE contraction)
# Design: species or system Hartley guinea pigs
# Conditions: 50% relaxation
smiles,measurement,setting,value
COc1cc(/C=C/C(=O)N2CCN(CC(=O)N3CCCC3)CC2)cc(OC)c1OC [Cinepazid],IC₅₀(M) Contraction by KCl,contraction by KCl 2.5 x 10⁻²M,2.0 x 10⁻³ M
same,IC₅₀(M) Contraction by NE,contraction by norepinephrine 10⁻⁶ g/ml,1 x 10⁻³ M
